Article PMC7819943, “Rice protein-binding microarrays: a tool to detect cis-acting elements near promoter regions in rice”
Some of the results follow.

Chains of the proteins cited; added tags and fusions are not shown.
UniProt Q0JBA9, entry or part of it: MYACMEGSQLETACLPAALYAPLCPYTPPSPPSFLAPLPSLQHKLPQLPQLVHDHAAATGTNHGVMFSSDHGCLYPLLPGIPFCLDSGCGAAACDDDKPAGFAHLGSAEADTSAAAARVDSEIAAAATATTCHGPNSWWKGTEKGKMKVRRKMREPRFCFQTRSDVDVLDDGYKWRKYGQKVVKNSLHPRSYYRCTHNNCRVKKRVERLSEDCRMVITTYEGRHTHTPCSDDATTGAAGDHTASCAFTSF

Each sequence was assayed against OsWRKY34 (Oryza sativa, UniProt Q0JBA9 1-250) (assay: protein-binding microarray (RPBM); PBS, 2% BSA, 51.3 ng/ul salmon testes DNA, 50 uM zinc acetate, 200 nM TF, 25 C, 1 h; high values mean tight binding). Conditions: protein: recombinant; tags: N-terminal polyhistidine and DsRed monomer fusion (pET32a); label: CyDye5-dUTP incorporated in the synthesized complementary strand; 3' TTTTT single-stranded linker to array surface; dsDNA, one strand shown.
Outline: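 Per-feature fluorescence intensity (arbitrary units), read on an Axon 4000B scanner, is the binding signal. Transcription factors carrying an N-terminal polyhistidine tag and DsRed fusion were expressed in E. coli BL21-CodonPlus and purified on Ni–NTA. A custom Agilent array, made double-stranded by primer extension with Cy5-dUTP and blocked with 2% BSA, was incubated with 200 nM protein in PBS, 2% BSA, salmon testes DNA and 50 µM zinc acetate at 25 °C for 1 h and then washed.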
With “TGTGGTGGGGATGGGACTGTTGCATGGGTTCTTGATGCTACGGAGTCACCTAGTGCAG” the binding signal was 10500 fluorescence intensity (a.u.).
In the case of “GAGTATATCATTTCTCAATTTATTATTTATAGGAGTGTAGCGGAGTCACCTAGTGCAG”, the binding signal is reported as 15700 fluorescence intensity (a.u.).
“TTCCTAACTCATTCATATGCTGGTCAGCTTTTGTTCATGACGGAGTCACCTAGTGCAG” was tested, and the binding signal was 10300 fluorescence intensity (a.u.).
For “GTTCGGCTGCTTTTTTTTTCTCCGGCTACAGCTGTGGCCACGGAGTCACCTAGTGCAG”, the binding signal was 8260 fluorescence intensity (a.u.).
With “TTTCTTATGTGCCACTATTTGCAATTTTTTTTCCACGTGACGGAGTCACCTAGTGCAG” the binding signal was 9520 fluorescence intensity (a.u.).
“TATTCGATTTTGGGTGGTGGTTGTTAAGTTGGCATTTGCACGGAGTCACCTAGTGCAG” was tested, and the binding signal was 18300 fluorescence intensity (a.u.).
“GGATCCACATTTGTTCTGGATTTCGTTTTTGTGTGTTTTTCGGAGTCACCTAGTGCAG” was tested, and the binding signal was 11300 fluorescence intensity (a.u.).
With “TGTGAAACCAATCACTATTATTTCATTAGCACGTTTTTCACGGAGTCACCTAGTGCAG” the binding signal was 8300 fluorescence intensity (a.u.).
“TCTTGGACGACAGCGTGCCCCTGCGCTCTTTTCGCCTTCGCGGAGTCACCTAGTGCAG” was tested, and the binding signal was 8340 fluorescence intensity (a.u.).
“GAGTTGGGGTGGTTGATGGCGTGCTTATCTTCCACTTCCACGGAGTCACCTAGTGCAG” was tested, and the binding signal was 8660 fluorescence intensity (a.u.).
In the case of “GGGGCGGTGGCGGCGGTGGATTGGGCGGTAACGCGATGGCCGGAGTCACCTAGTGCAG”, the binding signal is reported as 10900 fluorescence intensity (a.u.).
In the case of “TCCCCGCTAGTCGCCCGCCCGTCTTCCCGCCGCCCGTCGGCGGAGTCACCTAGTGCAG”, the binding signal is reported as 9950 fluorescence intensity (a.u.).
With “CCTCCACTGTACCGTATATATAGTCAATTACCACTTCGTCCGGAGTCACCTAGTGCAG” the binding signal was 10300 fluorescence intensity (a.u.).
In the case of “TTAAGTCCATTCACGCTTATATAAAGCCAAGTTATAGTTTCGGAGTCACCTAGTGCAG”, the binding signal is reported as 9240 fluorescence intensity (a.u.).
In the case of “TTCTAGTATATACCTGTCGAGAAGCTATTATATTCTATAACGGAGTCACCTAGTGCAG”, the binding signal is reported as 10100 fluorescence intensity (a.u.).
For “AGTGGTTTTGCGTTGGTTGTAAGGGTCGGGTTTGGGCAAACGGAGTCACCTAGTGCAG”, the binding signal was 13500 fluorescence intensity (a.u.).
With “CACCCTGACGGTCCAGCACGATCCACCCCATCTATCGAACCGGAGTCACCTAGTGCAG” the binding signal was 10800 fluorescence intensity (a.u.).
“GAGGAAGGGTACACTATTTTGCATTCTTGAAGTTCACTGACGGAGTCACCTAGTGCAG” was tested, and the binding signal was 8420 fluorescence intensity (a.u.).
With “CTTTCTTGCTATTTTATGGATTTTATTGAAATTGGTTCTTCGGAGTCACCTAGTGCAG” the binding signal was 8160 fluorescence intensity (a.u.).
For “TCACCTTTTTACCACTTCAAATATTTTATTCTCACACATACGGAGTCACCTAGTGCAG”, the binding signal was 8360 fluorescence intensity (a.u.).
For “CTCCTCTTCTCTCCACCACACATGCTTCAAGTGGCTAGGACGGAGTCACCTAGTGCAG”, the binding signal was 9990 fluorescence intensity (a.u.).
For “CCTGCCACCTCAAACACCTGAAGCTGTCTGGTTCTTTACTCGGAGTCACCTAGTGCAG”, the binding signal was 8450 fluorescence intensity (a.u.).
With “AGTGAATCAGTGGTACAAAATTTCCAACCATTTTGTTGACCGGAGTCACCTAGTGCAG” the binding signal was 9410 fluorescence intensity (a.u.).
With “CCCAGGCGTCACCAGTCCCACGTGGCGCCACCCCATTGGCCGGAGTCACCTAGTGCAG” the binding signal was 9510 fluorescence intensity (a.u.).
“ATTGGTTTTATCTACATGTTTGCTATTCAGGTTTATTCTGCGGAGTCACCTAGTGCAG” was tested, and the binding signal was 8400 fluorescence intensity (a.u.).
With “CGGGGTTATGTGTCACGTGTCAAAATGTGTGGTTTTGTACCGGAGTCACCTAGTGCAG” the binding signal was 9200 fluorescence intensity (a.u.).
“AGGAGGTGGTATTATTTTTTTTTTGGTAGAGAGGGGAGGGCGGAGTCACCTAGTGCAG” was tested, and the binding signal was 16500 fluorescence intensity (a.u.).
For “AACCGTTCGATCCCGTCTACCGCGTGCACCACATCGCTTCCGGAGTCACCTAGTGCAG”, the binding signal was 9260 fluorescence intensity (a.u.).
With “GGTTTGGCTTTGCTTCTTCCTCGCGCGGCGCCTCCCATCCCGGAGTCACCTAGTGCAG” the binding signal was 9260 fluorescence intensity (a.u.).
With “GTTAATGACAGCATACCCATTCTTATTCGTTGTTATAATTCGGAGTCACCTAGTGCAG” the binding signal was 8700 fluorescence intensity (a.u.).
For “AAAAACCTTTTAAATTTGTTTTTGATGTGTCTCTATCCCTCGGAGTCACCTAGTGCAG”, the binding signal was 9080 fluorescence intensity (a.u.).
In the case of “GCATTATTCCGACTTCGCCGTCGTTCTCCTCCCGTCGCGGCGGAGTCACCTAGTGCAG”, the binding signal is reported as 8640 fluorescence intensity (a.u.).
In the case of “TGTGTGGTATGGGGAGAAATCAATAAAATGTATGAGAGAGCGGAGTCACCTAGTGCAG”, the binding signal is reported as 8970 fluorescence intensity (a.u.).
“GACTCCACGCGTCTGGATCCGGCCCACCGCCGCTGGATCTCGGAGTCACCTAGTGCAG” was tested, and the binding signal was 8520 fluorescence intensity (a.u.).
In the case of “CGTTGGGCTCAAGGGGAGGGATATCTATCTAACAGTAACACGGAGTCACCTAGTGCAG”, the binding signal is reported as 9730 fluorescence intensity (a.u.).
With “CCCGCTTGCATCCCTAGACATGATCCATCCACCTTCTTATCGGAGTCACCTAGTGCAG” the binding signal was 9860 fluorescence intensity (a.u.).
With “AAATTGCCCTTGTGACCATTTAGTTGACTTGTGTGGAGGACGGAGTCACCTAGTGCAG” the binding signal was 8080 fluorescence intensity (a.u.).
For “GTTGTGGGTTTTCGTATTTAATGTTTGACTGTCTATTTTACGGAGTCACCTAGTGCAG”, the binding signal was 17300 fluorescence intensity (a.u.).
In the case of “CAATAGTCACGGGTGTATCTGTGTCCTTGTGGGTGTTTATCGGAGTCACCTAGTGCAG”, the binding signal is reported as 10800 fluorescence intensity (a.u.).
For “TGCATTTGTCTAGGGCCTGGTTTAGTTCCTAACTTTTTTTCGGAGTCACCTAGTGCAG”, the binding signal was 11800 fluorescence intensity (a.u.).
For “TGAATATGCTGCCCATTGCACAAGATTGGGCGAGGGAGGGCGGAGTCACCTAGTGCAG”, the binding signal was 8700 fluorescence intensity (a.u.).
With “GCCATTAGCGCTCCACGTGTCCTCTTAGGCACTTCACCAACGGAGTCACCTAGTGCAG” the binding signal was 8560 fluorescence intensity (a.u.).
In the case of “AGCTGAACTAATGCATCACCCAGTAGTTATCCCATGCTCCCGGAGTCACCTAGTGCAG”, the binding signal is reported as 9150 fluorescence intensity (a.u.).
“TATAACTCATCATCTATTGCCATGTGCTAACTTTTTCATCCGGAGTCACCTAGTGCAG” was tested, and the binding signal was 13100 fluorescence intensity (a.u.).
With “GTGTGAATGACTAATGGGTCCCACTCATATTTTTTAATTCCGGAGTCACCTAGTGCAG” the binding signal was 8620 fluorescence intensity (a.u.).
In the case of “ACAAACTAGCGCCTCCATCTCTCACTGGCAGCCGGGCCCCCGGAGTCACCTAGTGCAG”, the binding signal is reported as 8270 fluorescence intensity (a.u.).
With “GACTGCCTCCGCAACGGCGCGTCCACGATCCCACGTTCCCCGGAGTCACCTAGTGCAG” the binding signal was 11000 fluorescence intensity (a.u.).
In the case of “TTGACCTCTTCGCTTATCCTCTACACCCGTCTCGATCTTTCGGAGTCACCTAGTGCAG”, the binding signal is reported as 11400 fluorescence intensity (a.u.).
For “GTTAGCATCAGCCTAACACCTGCCCATTTCGTCCCTTTTTCGGAGTCACCTAGTGCAG”, the binding signal was 13000 fluorescence intensity (a.u.).
“GAGGTCATACTTTTTAATTCGATGACCTTGTATGCATAAACGGAGTCACCTAGTGCAG” was tested, and the binding signal was 8260 fluorescence intensity (a.u.).
With “GGTACAGTACGCTGGATTGGCAGTTCTATCTATATTGTACCGGAGTCACCTAGTGCAG” the binding signal was 8930 fluorescence intensity (a.u.).
In the case of “ACATGTTTGACCATTCGTCTTATTCAAAAATTTTATGCAACGGAGTCACCTAGTGCAG”, the binding signal is reported as 10100 fluorescence intensity (a.u.).
For “CCCACAGGTCCATTCACCCAGCTCAGCACAGCATCCTATCCGGAGTCACCTAGTGCAG”, the binding signal was 8490 fluorescence intensity (a.u.).
With “GGCCATCTGCTACCAGCTCGCGTTCTTAACTCCTCCCCTACGGAGTCACCTAGTGCAG” the binding signal was 8780 fluorescence intensity (a.u.).
